Source: ChEMBL document CHEMBL3988442, “University of Dundee, Small-Polar-MMV Screening Library” (2021).

Amino acid sequences for entries named in this document (tags omitted).
UniProt E9BF75, entry or part of it: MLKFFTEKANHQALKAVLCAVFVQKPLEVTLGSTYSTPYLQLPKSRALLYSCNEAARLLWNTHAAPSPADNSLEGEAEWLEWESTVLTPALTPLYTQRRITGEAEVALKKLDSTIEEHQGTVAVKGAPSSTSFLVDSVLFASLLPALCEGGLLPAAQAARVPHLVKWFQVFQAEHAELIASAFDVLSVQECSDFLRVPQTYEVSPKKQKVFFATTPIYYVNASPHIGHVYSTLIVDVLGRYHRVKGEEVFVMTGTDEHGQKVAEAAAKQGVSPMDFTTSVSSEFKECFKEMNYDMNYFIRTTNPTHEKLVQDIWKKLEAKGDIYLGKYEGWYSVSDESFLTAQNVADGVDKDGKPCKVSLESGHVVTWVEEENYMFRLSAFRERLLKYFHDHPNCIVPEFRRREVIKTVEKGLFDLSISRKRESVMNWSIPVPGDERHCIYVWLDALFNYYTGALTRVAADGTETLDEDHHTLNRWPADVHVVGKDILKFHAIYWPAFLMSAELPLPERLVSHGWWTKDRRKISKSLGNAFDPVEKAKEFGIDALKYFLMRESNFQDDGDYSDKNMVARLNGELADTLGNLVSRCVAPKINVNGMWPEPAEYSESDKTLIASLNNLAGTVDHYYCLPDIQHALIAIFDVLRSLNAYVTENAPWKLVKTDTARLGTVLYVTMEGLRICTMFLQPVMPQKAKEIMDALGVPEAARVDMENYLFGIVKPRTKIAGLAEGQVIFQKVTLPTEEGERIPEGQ

Results are percentages, as filed.
The controls that fix the scale are not given in the record; negative values are as filed.
This is an unselected part of the compounds tested.

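Methionyl-tRNA synthetase (putative), Leishmania donovani (UniProt E9BF75). Primary screen of methionyl-tRNA synthetase; the read-out is not stated. The test concentration is not given. The values are filed as inhibition. Size under these conditions: about 68,000 compounds, about 24 of them at 50% or above in at least one test.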

Result for CCCc1nc(C)cc(N2CCNC(C(=O)Nc3ccc(C)nc3)C2)n1 (centres undefined) was 12.1%.
Result for CCCn1ccnc1-c1nccn1CCN(C)C was 12.36%.
Result for CC(=O)c1cccc(OCCCC(=O)NC(C#N)CC(C)C)c1 (centres undefined) was 9.712%.
Result for CN(C)c1nc(O)cc(C2CCN(C(=O)Cc3ccccn3)C2)n1 (centres undefined) was 11.02%.
Result for Cc1cc2nc(C(C)C)cc(NCCc3ccncc3)n2n1 was 15.59%.
Result for C=C/C=c1\c(=C/C)oc2c(NCc3ccccc3)ncnc12 was 9.14%.
Result for c1ccc(CN2CCC3(CC2)CC(Nc2nccs2)CO3)nc1 (centres undefined) was 3.483%.
Result for COCC(=O)N1CCOCC2(CCN(Cc3cccs3)C2)C1 (centres undefined) was 5.205%.
Result for CN(Cc1cc(Cl)ccc1Cl)Cc1ncnn1C was 13.53%.
Result for Cc1ccc([C@@H]2CN(S(=O)(=O)N(C)C)C[C@H]2N(C)C)cc1 was 13.75%.
Result for COC(=O)CCNC(=O)c1ccc(NC(=O)N(C)CC(C)C)cc1 was 4.819%.
Result for Cc1nn(C)cc1C(=O)Nc1cccc(CN2CCC(CO)CC2)c1 was 4.225%.
Result for COCCNC(=O)c1nnc2ccc(N3CCOCC3)cc2n1 was -31.41%.
Result for Cc1ccc(N2CCCC(N(C)Cc3nc(C)c(C)o3)C2)nn1 (centres undefined) was 4.106%.
Result for COc1cc2ccn(CCS(C)(=O)=O)c(=O)c2cc1F was 7.459%.
Result for CN(CCCc1nccn1C)C(=O)C1CCN(C(=O)C2CCCC2)CC1 was 14.91%.
Result for CCS(=O)(=O)Cc1nc(-c2cnn3c(C)cc(C)nc23)no1 was 13.77%.
Result for COC1(CNC(=O)CCCc2ccccc2)CCSC1 (centres undefined) was 4.885%.
Result for Cc1ccc(-c2c(C(=O)NC3CCN(C)CC3)csc2C)cc1 was 7.216%.
Result for Cc1cnn(CCC(=O)Nc2ccc(F)cc2OCC2CC2)c1 was 9.03%.
Result for Cn1cc(CNC2CCS(=O)(=O)C2)c(-c2cc3ccccc3o2)n1 (centres undefined) was 12.1%.
Result for CC(C)N(CCS(C)(=O)=O)Cc1csc(-c2ccccc2F)n1 was 12.81%.
Result for COCC(=O)NCc1cc(=O)n2c(n1)CN(CC1CC1)CCC2 was 4.134%.
Result for Cn1ncc2c(=O)[nH]c(N3CCCC3c3cccs3)nc21 (centres undefined) was 8.242%.
Result for Cc1nc(C2CCCN2C(=O)CCOCc2ccccc2)no1 (centres undefined) was 1.14%.
Result for Cc1ccc2nc(N3CCN(CC(=O)NC(C)C)CC3)cc(C)c2c1 was 2.835%.
Result for Cc1cc(NC(=O)CC2(Cn3cnnn3)CCCCC2)nn1C was 12.83%.
Result for Cc1nn(C)c(Cl)c1C1CCCN1C(=O)c1cccc(C#N)c1 (centres undefined) was 25%.
Result for CCc1noc(C(C)N2CCN(Cc3noc(C)n3)CC2)n1 (centres undefined) was -1.02%.
Result for O=C(CCN1CCc2[nH]nc(C(F)(F)F)c2C1)Nc1ccccc1 was 5.801%.
Result for Cc1noc(C)c1CN1CCC2(CC1)CN(c1ccccn1)CCO2 was 12.9%.
Result for Cc1c(C(C)NC(=O)C2CCCCC2)cnn1C (centres undefined) was 22.1%.
Result for CCCNC(=O)CSCc1ccc(S(=O)(=O)N(C)C)o1 was 9.42%.
Result for O=C(NC(C(=O)Nc1cc[nH]n1)c1ccccc1)C1CCC1 (centres undefined) was 14.37%.
Result for Cn1nc2c(cc1=O)CN(Cc1nc(-c3ccccn3)no1)CC2 was 14.21%.
Result for COCCN1CCCC2(CCN(c3ncnc(C)c3C)C2)C1=O (centres undefined) was 4.467%.
Result for Cc1nc(N(C)C2CCCCC2)ncc1C(C)NC(=O)c1cscn1 (centres undefined) was 3.78%.
Result for NC(=O)c1cc2c(nc1N)CCN(C(=O)C1CCCCC1)C2 was 7.097%.

Once more, the final 5:

| compound | Inhibition |
|---|---|
| `O=C(NC(C(=O)Nc1cc[nH]n1)c1ccccc1)C1CCC1` (centres undefined) | 14.37 |
| `Cn1nc2c(cc1=O)CN(Cc1nc(-c3ccccn3)no1)CC2` | 14.21 |
| `COCCN1CCCC2(CCN(c3ncnc(C)c3C)C2)C1=O` (centres undefined) | 4.467 |
| `Cc1nc(N(C)C2CCCCC2)ncc1C(C)NC(=O)c1cscn1` (centres undefined) | 3.78 |
| `NC(=O)c1cc2c(nc1N)CCN(C(=O)C1CCCCC1)C2` | 7.097 |